In patent US20130317056A1, “NEURONAL NICOTINIC AGONISTS AND METHODS OF CORRELATING COMT SNPS” (ABBVIE INC., priority 2012, published 2013):

Tested on: clinically stable subjects with schizophrenia
Test: Disposition of subjects and tolerability, Clinical Study A
Assay type: in vivo, human
Settings: 25 mg group
Description: A Phase 2a proof-of-concept (POC) study in clinically stable subjects with schizophrenia who were clinically stable and received stable doses of atypical antipsychotic therapy. The study was a Phase 2, multi-center, randomized, double-blind, placebo-controlled, parallel group study designed to evaluate the safety and efficacy of doses of (4s)-4-(5-phenyl-1,3,4-thiadiazol-2-yloxy)-1-azatricyclo[3.3.1.1^3,7]decane (Compound A) in clinically stable male and female subjects (ages 20 to 55, inclusive) with a Diagnostic and Statistical Manual of Mental Disorders—Fourth Edition, Text Revision (DSM-IV-TR) diagnosis of schizophrenia. Psychiatric diagnoses were confirmed using the Mini-International Neuropsychiatric Interview (MINI) version 6.0.0. The criteria for clinical stability was determined by a combination of retrospective data (over the 4 months prior to the start of Screening, which will be supported by clinical records, patient, identified responsible contact person, and physician interviews), and prospective data assessed during the Prospective Stabilization Period of 28 to 42 days duration.
The study consisted of a screening period of at least 28 and up to 42 days, a 84-day outpatient treatment period, a 14-day post-treatment period, and a post-treatment follow-up period. The screening period consisted of three visits: Screening Visit 1, Screening Visit 2, and Day −1. […]

c1ccc(-c2nnc(O[C@@H]3C4CC5C[C@H]3C[N@](C5)C4)s2)cc1 [Compound A, (4s)-4-(5-phenyl-1,3,4-thiadiazol-2-yloxy)-1-azatricyclo[3.3.1.1^3,7]decane]
completion rate: 73.1%
